The exact form of at least one protein or probe is not confirmed. Weaker means in comparison with the reference protein, sequence or condition of that experiment.

Amino acid sequences for entries named in this document (tags omitted). Residues count along the entry.
UniProt P30530, 26-894: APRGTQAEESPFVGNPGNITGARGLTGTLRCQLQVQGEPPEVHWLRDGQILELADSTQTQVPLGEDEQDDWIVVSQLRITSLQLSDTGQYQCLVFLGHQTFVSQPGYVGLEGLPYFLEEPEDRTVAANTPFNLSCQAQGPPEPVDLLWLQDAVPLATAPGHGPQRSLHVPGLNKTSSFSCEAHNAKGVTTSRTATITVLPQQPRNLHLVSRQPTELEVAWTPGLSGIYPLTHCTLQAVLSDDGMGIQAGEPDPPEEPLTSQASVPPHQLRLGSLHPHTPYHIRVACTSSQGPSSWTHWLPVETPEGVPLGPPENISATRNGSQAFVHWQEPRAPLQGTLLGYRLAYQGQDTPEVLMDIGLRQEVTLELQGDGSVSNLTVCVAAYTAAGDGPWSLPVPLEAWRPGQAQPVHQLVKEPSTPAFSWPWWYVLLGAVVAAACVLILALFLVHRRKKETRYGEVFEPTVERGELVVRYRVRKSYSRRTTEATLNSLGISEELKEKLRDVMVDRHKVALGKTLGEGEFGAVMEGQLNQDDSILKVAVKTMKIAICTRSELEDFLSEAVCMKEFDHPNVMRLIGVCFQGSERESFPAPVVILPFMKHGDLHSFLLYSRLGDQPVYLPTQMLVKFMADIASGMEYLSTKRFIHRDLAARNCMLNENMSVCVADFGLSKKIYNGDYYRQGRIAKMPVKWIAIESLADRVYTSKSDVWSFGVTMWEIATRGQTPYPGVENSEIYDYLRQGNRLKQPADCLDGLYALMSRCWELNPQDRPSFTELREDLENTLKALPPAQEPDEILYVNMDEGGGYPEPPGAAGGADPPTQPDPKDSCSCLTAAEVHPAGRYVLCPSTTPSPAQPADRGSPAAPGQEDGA

For the data set, the target named is AXL receptor tyrosine kinase (UniProt P30530). As to the kind of experiment: activity in cells. To be noted: 2'-F pyrimidines, protein in cells, protein details: endogenous AXL in human ovarian cancer cell lines, dose not given here.

For the sequence “AUGAUCAAUCGCCUCAAUUCGACGGAGGCUCAC [GL21.T]”, where the note is “less p-AXL reduction than GLB-G25 and GLB-A04 in SKOV3.ip1 with Gas6”, the “functional effect of the aptamer” value was “less active”.

Take “ATGATCAATCGCCTCAATTCGACAGGAGGCTCAC [GLB-A04 PEG]”: for the setting “phosphorodithioate (PS2) at position 4, PEG, reduces p-AXL in SKOV3.ip1 tumor tissue in mice, alone or with paclitaxel, single-stranded DNA, variant of GLB-A04”, the “functional effect of the aptamer” value was “active”.

As for “ATGATCAATCGCCTCAATTCGACAGGAGGCTCAC [GLB-G25 PEG]”, where the note is “phosphorodithioate (PS2) at position 25, PEG, reduces p-AXL in SKOV3.ip1 tumor tissue in mice, alone or with paclitaxel, single-stranded DNA, variant of GLB-G25”, the “functional effect of the aptamer” value is “active”.

For “ATGATCAATCGCCTCAATTCGACGGAGGCTCAC [GLD-1]”, the “functional effect of the aptamer” value (monothiophosphate, less p-AXL reduction than GLB-G25 and GLB-A04 in SKOV3.ip1 with Gas6, single-stranded DNA, variant of GL21.T) is “less active”.

These data come from patent publication US20220380766.
